In this experiment the target is TLR4 (human (endogenous in Hep3B)) (UniProt O00206). The experiment in a line: co-IP; endogenous proteins; Hep3B lysate in NP-40 lysis buffer with protease inhibitors incubated overnight at 4 °C with anti-TLR4 antibody (4 μg/ml) or control IgG, protein G/A beads 3 h at 4 °C, washed with precooled PBS; immunoblot for TLR4 and RPLP2. A general note: Immunoblotting shows a protein as a band on a membrane.

Sequences of proteins named here, by UniProt entry; tags and fusion partners are left off. Residues count along the entry.
UniProt O00206, residues 24-839: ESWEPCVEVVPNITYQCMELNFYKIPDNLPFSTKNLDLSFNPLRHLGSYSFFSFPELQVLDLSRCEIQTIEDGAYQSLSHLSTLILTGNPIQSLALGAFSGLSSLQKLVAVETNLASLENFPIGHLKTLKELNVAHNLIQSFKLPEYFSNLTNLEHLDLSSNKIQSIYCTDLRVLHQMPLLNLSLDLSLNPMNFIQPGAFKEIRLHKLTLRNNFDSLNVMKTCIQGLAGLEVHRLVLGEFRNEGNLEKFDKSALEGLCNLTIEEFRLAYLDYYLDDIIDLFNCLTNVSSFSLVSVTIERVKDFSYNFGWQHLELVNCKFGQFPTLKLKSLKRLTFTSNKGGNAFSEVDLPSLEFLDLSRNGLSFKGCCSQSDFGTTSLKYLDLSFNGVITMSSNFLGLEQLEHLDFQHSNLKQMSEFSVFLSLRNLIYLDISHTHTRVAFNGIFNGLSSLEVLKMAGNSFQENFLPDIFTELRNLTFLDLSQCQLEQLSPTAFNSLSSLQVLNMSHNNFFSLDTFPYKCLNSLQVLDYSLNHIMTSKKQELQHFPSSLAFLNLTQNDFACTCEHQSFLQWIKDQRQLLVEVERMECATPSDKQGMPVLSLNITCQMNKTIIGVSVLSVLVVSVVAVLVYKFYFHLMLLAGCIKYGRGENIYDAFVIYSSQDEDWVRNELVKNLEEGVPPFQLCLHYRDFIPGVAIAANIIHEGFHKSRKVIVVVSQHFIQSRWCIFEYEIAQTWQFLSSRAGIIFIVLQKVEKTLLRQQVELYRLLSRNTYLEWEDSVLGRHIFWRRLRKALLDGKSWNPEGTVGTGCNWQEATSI
UniProt P05387: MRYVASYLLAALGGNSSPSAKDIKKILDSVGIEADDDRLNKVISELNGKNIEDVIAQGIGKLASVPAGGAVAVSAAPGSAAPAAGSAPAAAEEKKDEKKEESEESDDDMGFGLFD

No constants are given. Whether binding was seen depends on the method and setting. In cells and extracts the contact can be indirect. Some entries that bind do so weakly or less than the wild type.

The results in this text go back to article PMC10697958.

For “Acidic ribosome protein P2 (RPLP2) (from UniProt P05387 1-115)”, the binding result is listed as “binds”.
